Source: patent US20140343118A1, “METHODS OF TREATMENT USING ARYLCYCLOPROPYLAMINE COMPOUNDS” (Duke University, priority 2013, published 2014)
At least one structure is not confirmed: it was looked up by name or label, or the drawing left a doubt.

Key:
Assay type in all cases: cell-based
[1] = tested on: ERα recruitment and H3K4-Me2 at pS2 and PR EREs in MCF7 cells; experiment: ChIP assay at pS2 and PR EREs; conditions: for recruitment of ERα to PR EREs / recruitment of ERα to the pS2 ERE: MCF7, after E2 treatment
MCF7 cells = experiment: Cell proliferation assay (total DNA content); conditions: MCF7, between 10 μM and 250 μM
Method: (§1) After 2 d, the cells were treated with fresh media containing the inhibitors at the concentrations indicated. Every 2 d, for a total of 6 or 10 d, respectively, the cells were treated similarly. […] Data are presented as the mean±SEM for triplicate wells in one representative experiment.

MDA-MB-231 cells = experiment: Cell proliferation assay (total DNA content); conditions: MDA-MB-231, between 10 μM and 250 μM
Method: as §1

breast cancer cells = experiment: Cell proliferation, statements over all breast cancer cell lines; conditions: repeated treatment, 10 day study

Compound | recruitment of ERα to PR EREs [1] | recruitment of ERα to the pS2 ERE [1] | E2-induced demethylation of H3K4-Me2 at pS2 and PR promoters ([1]; MCF7) | dose dependence of inhibition of proliferation (MCF7 cells) | dose dependence of inhibition of proliferation (MDA-MB-231 cells) | cell death on long term treatment (breast cancer cells)
COc1ccc(C2CC2N)cc1 (stereo not drawn) [Compound 1a] | decreased | decreased | – | – | – | –
CC(C)Oc1ccc(C2CC2N)cc1 (stereo not drawn) [Compound 1c] | decreased | markedly reduced | decreased | dosage dependent inhibition of proliferation | dosage dependent inhibition of proliferation | cell death between days 6 and 8
CCOc1ccc(C2CC2N)cc1 (stereo not drawn) [Compound 1b] | – | – | – | – | – | cell death between days 6 and 8
